Experimental data from PubChem BioAssay AID504834 (National Center for Advancing Translational Sciences (NCATS), 2011).
Hit rate of the full screen: of about 320,000 compounds, about 22,000 (6.9%) were called active. Inconclusive means that the source gave no clear call. Such entries were picked first, then a sample of the others. Calls follow the shape of the dose curve; as a rule, active = well fitted inhibition curve with a large enough effect; inconclusive = small, poorly fitted or top-dose-only effect, or another doubt; inactive = no such curve, though single readings can be large or run the other way. Where the call is inconclusive, the potency comes from a doubtful curve fit.
Potency is read from the fitted curve at half-maximal effect.

Test: Primary qHTS for delayed death inhibitors of the malarial parasite plastid, 96 hour incubation
Conditions: P. falciparum luciferase reporter growth; series mostly up to 28.7 µM
Method in brief: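 Infected RBCs, 2% Hct / 0.05% parasitemia final; luciferase-reporter P. falciparum; cpd 96 h, 37 C, 5% CO2; luciferase detection reagent; luminescence.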
With `CCOC(=O)CSc1nc(C)[nH]c1[N+](=O)[O-]` the Potency was inconclusive: 2.94 µM [inhibitor, partial curve, poor fit].
With `CC(C)c1ccc(/C=C2\NC(=S)N(Cc3cccnc3)C2=O)cc1` the Potency was inconclusive: 8.28 µM [inhibitor, partial curve].
For `Cc1ccc2nc(NCCC(=O)O)nc(-c3ccccc3)c2c1`, the Potency was inconclusive: 10.4 µM [inhibitor, single point].
With `Nc1ccc(S(=O)(=O)c2ccc(N)cc2)cc1` the Potency was “inactive”.
For `CC1=CC(c2ccccc2)NC(=S)N1` (centres undefined), the Potency was inconclusive: 4.15 µM [inhibitor, single point].
For `O=C1OC(c2ccccc2)c2ccc3ccccc3c21` (centres undefined), the Potency was “inactive”.
In the case of `C(#Cc1ccc2c(c1)COc1c3ccccc3nn1-2)c1ccccc1`, the Potency is reported as inconclusive: 8.28 µM [inhibitor, single point].
For `CCCCSCCCNC(=O)c1cn(CC)c2ccc(S(=O)(=O)N3CCOCC3)cc2c1=O`, the Potency was inconclusive: 11.7 µM [inhibitor, partial curve].
In the case of `Cc1ccccc1-c1nnc(CS(=O)(=O)c2ccccc2)o1`, the Potency is reported as inconclusive: 11.7 µM [inhibitor, single point].
In the case of `O=C(c1ccc(-c2ccccc2)cc1)N1CCC(C(=O)N2CCCC2)CC1`, the Potency is reported as inconclusive: 0.208 µM [inhibitor, full curve, poor fit].
For `Cc1ccc(S(=O)(=O)N(Cc2ccc(Cl)cc2)c2ccccc2C(=O)NCc2cccnc2)cc1`, the Potency was inconclusive: 16.5 µM [inhibitor, single point].
For `CC(SC1=NCCN1S(=O)(=O)c1ccc(F)cc1)c1ccccc1` (centres undefined), the Potency was active: 11.7 µM.
For `O=Nc1ccc(O)c2ncccc12`, the Potency was active: 3.29 µM.
In the case of `COc1ccc([C@]23Cc4cc(OC)c(OC)cc4C(O2)c2c(cc(C)oc2=O)O3)cc1`, the Potency is reported as active: 0.338 µM.
In the case of `N#C/C(=C\c1ccccc1)C(=O)N(c1ccccn1)C1CCCCC1`, the Potency is reported as inconclusive: 0.147 µM [inhibitor, full curve, poor fit].
With `O=Cc1ccc(-c2ccc(F)cc2)o1` the Potency was inconclusive: 18.5 µM [inhibitor, single point].
In the case of `CC(=O)Nc1ccc(OC(=O)c2cc3cc(Br)cc(Br)c3oc2=O)cc1`, the Potency is reported as “inactive”.
In the case of `CCOc1ccc(-n2cc(-c3ccccc3)c3c(=O)[nH]cnc32)cc1`, the Potency is reported as inconclusive: 11.7 µM [inhibitor, partial curve].
For `O=C(O)CCN1CCc2ccccc2C1c1cccs1` (centres undefined), the Potency was “inactive”.
In the case of `COc1cccc(C(=O)Nc2ccc3c(c2)C(=O)NC3=O)c1`, the Potency is reported as “inactive”.
With `CC1CCCCN1C(=O)/C(=C\c1ccccc1)c1ccccc1` (centres undefined) the Potency was inconclusive: 10.4 µM [inhibitor, partial curve, poor fit].
With `Nc1c2c(nc3ccc(Br)cc13)N(c1ccccc1)CC2` the Potency was inconclusive: 11.7 µM [inhibitor, single point].
For `COc1ccccc1-c1ccc(/C=N/O)o1`, the Potency was “inactive”.
In the case of `O=c1cc(-c2ccccc2Cl)oc2c(NS(=O)(=O)c3ccccc3OC(F)(F)F)ccc(O)c12`, the Potency is reported as inconclusive: 9.28 µM [inhibitor, partial curve].
For `CCOC(=O)c1sc(NC(=O)Nc2cccc(Cl)c2)cc1C`, the Potency was inconclusive: 9.28 µM [inhibitor, single point].
For `CNCCCC1Sc2ccccc2Oc2ccccc21` (centres undefined), the Potency was active: 9.28 µM.
For `CSc1nnc([C@@H](N)Cc2ccccc2)o1`, the Potency was inconclusive: 0.657 µM [inhibitor, full curve].
For `O=C(CCN1CCCCC1=O)NC1CCCc2c1cnn2-c1ccccc1F` (centres undefined), the Potency was inconclusive: 18.5 µM [inhibitor, single point].
For `Cc1ccc(C(=O)COC(=O)CN2C(=O)C3C4CC(C(Br)C4Br)C3C2=O)cc1` (centres undefined), the Potency was inconclusive: 2.94 µM [inhibitor, partial curve, poor fit].
In the case of `COc1ccc(OCCNC2CCCC2)cc1`, the Potency is reported as inconclusive: 2.94 µM [inhibitor, partial curve, poor fit].
In the case of `COc1ccc(CC(=O)NCc2ccccc2)cc1`, the Potency is reported as inconclusive: 16.5 µM [inhibitor, single point].
With `OCc1nc2ccccc2n1CCCOc1ccccc1` the Potency was inconclusive: 0.0828 µM [inhibitor, full curve, poor fit].
With `O=C1C2C3C=CC(CC3)C2C(=O)N1c1ccc(Cl)cc1` (centres undefined) the Potency was inconclusive: 5.86 µM [inhibitor, partial curve, poor fit].
For `COc1ccc(-c2cc([C@H]3[C@H]4C=CC[C@@H](C)[C@@H]4C(=O)N3Cc3ccccc3)ccc2F)cc1OC`, the Potency was inconclusive: 2.62 µM [inhibitor, single point].
For `CCOC(=O)C1(Cc2ccc(Cl)cc2)CCN(C(=O)CCc2ccncc2)CC1`, the Potency was inconclusive: 0.0828 µM [inhibitor, full curve, poor fit].
With `COC(=O)Cn1c(=NC(=O)c2cccc(OC)c2)sc2cc(OC)ccc21` the Potency was inconclusive: 5.86 µM [inhibitor, single point].
In the case of `COc1ccc(C(O)P(=O)(OCCC(C)C)c2ccc(N(C)C)cc2)cc1` (centres undefined), the Potency is reported as “inactive”.
In the case of `CCCCc1ccc(NC(=O)CSc2nc(=O)n(CCN(CC)CC)c3c2CCC3)cc1`, the Potency is reported as inconclusive: 4.15 µM [inhibitor, full curve].
For `COc1ccc2cc(C(=O)C3CCCN(C4CCOCC4)C3)ccc2c1` (centres undefined), the Potency was inconclusive: 10.4 µM [inhibitor, partial curve].
For `COCCCNC(=O)Cn1nnc(-c2ccc(NC(=O)c3ccccc3OC)cc2)n1`, the Potency was inconclusive: 14.7 µM [inhibitor, single point].
For `CN(C)c1nc(SCc2ccccc2Cl)nc2c1CCCC2`, the Potency was inconclusive: 10.4 µM [inhibitor, partial curve, poor fit].
For `CC1CCCC(C)N1C(=O)CN1C(=O)c2ccccc2S1(=O)=O` (centres undefined), the Potency was “inactive”.
With `CC1CCc2nc3ccc(S(=O)(=O)N4CCC(C(=O)NCc5ccccc5Cl)CC4)cc3c(C(=O)O)c2C1` (centres undefined) the Potency was inconclusive: 18.5 µM [inhibitor, single point].
For `COC(=O)c1cc(S(=O)(=O)NCC2CCN(Cc3cccc(Cl)c3)CC2)c[nH]1`, the Potency was inconclusive: 16.5 µM [inhibitor, single point].
